Measurements as given in the supplement of paper PMC12823440, “Inhibitors supercharge kinase turnover through native proteolytic circuits” (Nature, 2025).
The list shows a part of the results. Hit calls seldom repeat between salt and free forms of one compound.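 Kinases, fused to nanoluciferase, were expressed in K562 cells; luminescence was measured every 4 h from 2 to 18 h as percent of control (DMSO = 100%, positive control = 0%). A time point is decreased if signal falls significantly (2 sigma). Hits were called by the authors by a rule that is not shown; the count of time points alone does not decide it.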

Amino acid sequences for entries named in this document (tags omitted). A change or cut given only in a name is not applied to a line headed by its entry.
UniProt Q9UM73: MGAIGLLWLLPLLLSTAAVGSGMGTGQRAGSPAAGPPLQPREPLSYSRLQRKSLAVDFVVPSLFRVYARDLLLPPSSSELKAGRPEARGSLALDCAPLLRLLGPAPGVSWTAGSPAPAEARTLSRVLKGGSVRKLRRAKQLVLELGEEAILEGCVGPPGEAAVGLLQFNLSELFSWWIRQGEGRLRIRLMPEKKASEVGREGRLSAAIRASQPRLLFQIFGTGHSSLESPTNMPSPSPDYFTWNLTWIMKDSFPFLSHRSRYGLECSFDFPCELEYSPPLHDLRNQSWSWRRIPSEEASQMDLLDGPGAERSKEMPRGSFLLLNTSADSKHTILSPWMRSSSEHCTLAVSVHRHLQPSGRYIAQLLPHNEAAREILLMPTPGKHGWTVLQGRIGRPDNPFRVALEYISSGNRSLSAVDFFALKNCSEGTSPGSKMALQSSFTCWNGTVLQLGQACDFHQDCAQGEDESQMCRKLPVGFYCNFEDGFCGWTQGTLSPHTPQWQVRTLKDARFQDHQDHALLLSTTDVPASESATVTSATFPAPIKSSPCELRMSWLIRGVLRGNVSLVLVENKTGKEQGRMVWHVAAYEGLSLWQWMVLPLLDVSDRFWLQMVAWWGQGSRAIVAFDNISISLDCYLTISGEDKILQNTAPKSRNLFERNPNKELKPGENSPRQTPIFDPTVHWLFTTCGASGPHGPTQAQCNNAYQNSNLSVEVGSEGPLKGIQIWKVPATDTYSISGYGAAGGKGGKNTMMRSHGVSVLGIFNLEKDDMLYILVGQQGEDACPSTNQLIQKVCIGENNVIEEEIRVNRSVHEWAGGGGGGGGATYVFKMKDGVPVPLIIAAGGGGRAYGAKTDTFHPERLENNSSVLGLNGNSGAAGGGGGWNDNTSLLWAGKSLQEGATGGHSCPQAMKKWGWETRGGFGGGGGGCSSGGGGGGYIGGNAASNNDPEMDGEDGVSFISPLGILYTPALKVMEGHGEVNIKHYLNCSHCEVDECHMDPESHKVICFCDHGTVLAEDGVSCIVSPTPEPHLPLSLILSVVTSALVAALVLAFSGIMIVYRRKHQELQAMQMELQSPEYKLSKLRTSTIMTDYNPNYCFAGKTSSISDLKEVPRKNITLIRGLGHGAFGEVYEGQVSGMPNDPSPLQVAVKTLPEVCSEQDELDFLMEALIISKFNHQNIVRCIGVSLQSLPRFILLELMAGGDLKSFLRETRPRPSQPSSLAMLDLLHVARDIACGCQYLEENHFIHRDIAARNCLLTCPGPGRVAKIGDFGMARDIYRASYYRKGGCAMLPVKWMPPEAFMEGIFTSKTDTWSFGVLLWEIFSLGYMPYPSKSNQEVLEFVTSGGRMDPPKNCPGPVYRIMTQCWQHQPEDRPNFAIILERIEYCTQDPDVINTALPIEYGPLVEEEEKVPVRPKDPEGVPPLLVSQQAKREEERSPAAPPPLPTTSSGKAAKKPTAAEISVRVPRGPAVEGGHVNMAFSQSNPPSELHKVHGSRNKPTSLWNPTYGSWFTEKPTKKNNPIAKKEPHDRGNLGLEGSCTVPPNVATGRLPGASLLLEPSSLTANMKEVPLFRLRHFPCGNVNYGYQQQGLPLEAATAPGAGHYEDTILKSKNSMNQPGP
UniProt P10398: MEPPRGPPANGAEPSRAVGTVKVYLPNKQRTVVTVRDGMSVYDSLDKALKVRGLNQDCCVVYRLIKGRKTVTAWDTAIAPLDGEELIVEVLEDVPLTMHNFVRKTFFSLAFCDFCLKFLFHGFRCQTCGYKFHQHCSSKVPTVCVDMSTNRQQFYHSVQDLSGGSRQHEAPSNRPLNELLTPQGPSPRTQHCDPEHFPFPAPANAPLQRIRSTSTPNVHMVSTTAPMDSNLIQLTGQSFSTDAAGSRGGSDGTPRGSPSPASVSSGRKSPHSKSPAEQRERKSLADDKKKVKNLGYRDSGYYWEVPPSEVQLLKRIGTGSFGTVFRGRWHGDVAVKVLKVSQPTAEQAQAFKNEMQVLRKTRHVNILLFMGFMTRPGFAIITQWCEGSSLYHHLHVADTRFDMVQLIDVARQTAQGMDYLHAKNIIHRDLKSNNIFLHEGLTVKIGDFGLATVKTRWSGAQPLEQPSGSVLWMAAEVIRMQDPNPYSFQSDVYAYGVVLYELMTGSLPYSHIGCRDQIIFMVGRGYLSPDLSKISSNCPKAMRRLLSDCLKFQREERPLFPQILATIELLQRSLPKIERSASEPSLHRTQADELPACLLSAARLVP
UniProt O14965: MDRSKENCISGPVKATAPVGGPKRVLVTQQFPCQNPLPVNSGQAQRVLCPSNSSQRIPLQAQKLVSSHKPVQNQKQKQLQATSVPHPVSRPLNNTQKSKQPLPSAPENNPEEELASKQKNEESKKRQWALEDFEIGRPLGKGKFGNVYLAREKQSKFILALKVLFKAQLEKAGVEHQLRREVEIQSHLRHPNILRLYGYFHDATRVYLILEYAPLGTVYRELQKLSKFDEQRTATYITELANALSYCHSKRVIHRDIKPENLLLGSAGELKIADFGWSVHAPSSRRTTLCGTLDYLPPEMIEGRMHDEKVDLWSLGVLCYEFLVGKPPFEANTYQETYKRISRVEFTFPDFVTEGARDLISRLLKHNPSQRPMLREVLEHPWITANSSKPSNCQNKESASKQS
UniProt Q96GD4, whole entry: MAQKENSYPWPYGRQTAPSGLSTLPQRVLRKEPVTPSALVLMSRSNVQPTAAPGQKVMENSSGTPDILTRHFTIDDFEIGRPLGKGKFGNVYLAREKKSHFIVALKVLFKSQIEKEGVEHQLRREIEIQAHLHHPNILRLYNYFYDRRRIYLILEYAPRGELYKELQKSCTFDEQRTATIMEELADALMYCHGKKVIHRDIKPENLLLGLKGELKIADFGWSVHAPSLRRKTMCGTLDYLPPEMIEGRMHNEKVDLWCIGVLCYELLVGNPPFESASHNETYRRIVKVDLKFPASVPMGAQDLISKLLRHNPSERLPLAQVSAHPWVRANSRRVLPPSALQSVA
UniProt Q9UQB9: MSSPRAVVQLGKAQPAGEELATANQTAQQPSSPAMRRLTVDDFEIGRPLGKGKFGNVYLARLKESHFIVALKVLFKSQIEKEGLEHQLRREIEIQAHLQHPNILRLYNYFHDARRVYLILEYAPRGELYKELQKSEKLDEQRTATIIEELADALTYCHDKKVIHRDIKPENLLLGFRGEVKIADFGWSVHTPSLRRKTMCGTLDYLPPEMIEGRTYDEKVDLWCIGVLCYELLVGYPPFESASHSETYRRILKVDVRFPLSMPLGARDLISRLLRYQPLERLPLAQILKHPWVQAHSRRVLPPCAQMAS
UniProt P51451: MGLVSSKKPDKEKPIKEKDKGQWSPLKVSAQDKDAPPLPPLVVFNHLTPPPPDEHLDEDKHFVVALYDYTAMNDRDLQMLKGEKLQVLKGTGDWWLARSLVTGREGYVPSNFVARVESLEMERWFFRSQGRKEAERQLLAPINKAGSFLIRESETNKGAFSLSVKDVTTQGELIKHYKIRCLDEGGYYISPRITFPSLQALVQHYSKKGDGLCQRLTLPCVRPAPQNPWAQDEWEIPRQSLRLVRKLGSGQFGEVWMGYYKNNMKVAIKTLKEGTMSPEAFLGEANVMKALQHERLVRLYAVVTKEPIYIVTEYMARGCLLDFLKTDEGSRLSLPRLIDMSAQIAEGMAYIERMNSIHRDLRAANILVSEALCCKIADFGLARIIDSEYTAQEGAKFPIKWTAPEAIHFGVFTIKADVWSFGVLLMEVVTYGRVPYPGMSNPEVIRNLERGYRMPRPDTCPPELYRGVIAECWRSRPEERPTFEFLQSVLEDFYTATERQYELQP
UniProt Q06187: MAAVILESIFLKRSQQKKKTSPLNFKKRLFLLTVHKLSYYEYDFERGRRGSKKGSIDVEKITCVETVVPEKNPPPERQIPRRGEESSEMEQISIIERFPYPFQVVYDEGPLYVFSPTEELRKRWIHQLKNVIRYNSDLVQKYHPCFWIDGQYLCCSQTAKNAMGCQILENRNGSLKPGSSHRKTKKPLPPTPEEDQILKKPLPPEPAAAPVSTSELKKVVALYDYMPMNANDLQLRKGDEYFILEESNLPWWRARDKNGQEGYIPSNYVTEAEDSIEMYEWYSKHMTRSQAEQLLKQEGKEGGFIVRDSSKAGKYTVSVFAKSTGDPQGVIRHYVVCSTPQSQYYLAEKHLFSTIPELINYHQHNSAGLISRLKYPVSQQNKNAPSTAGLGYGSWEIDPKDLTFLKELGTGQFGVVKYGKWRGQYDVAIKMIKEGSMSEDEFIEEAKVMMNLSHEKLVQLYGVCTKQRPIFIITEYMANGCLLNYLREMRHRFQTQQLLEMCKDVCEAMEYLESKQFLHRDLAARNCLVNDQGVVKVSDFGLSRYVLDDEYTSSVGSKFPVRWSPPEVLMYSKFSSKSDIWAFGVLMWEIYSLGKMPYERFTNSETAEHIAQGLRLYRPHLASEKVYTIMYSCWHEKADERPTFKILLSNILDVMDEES
UniProt Q9UQM7, whole entry: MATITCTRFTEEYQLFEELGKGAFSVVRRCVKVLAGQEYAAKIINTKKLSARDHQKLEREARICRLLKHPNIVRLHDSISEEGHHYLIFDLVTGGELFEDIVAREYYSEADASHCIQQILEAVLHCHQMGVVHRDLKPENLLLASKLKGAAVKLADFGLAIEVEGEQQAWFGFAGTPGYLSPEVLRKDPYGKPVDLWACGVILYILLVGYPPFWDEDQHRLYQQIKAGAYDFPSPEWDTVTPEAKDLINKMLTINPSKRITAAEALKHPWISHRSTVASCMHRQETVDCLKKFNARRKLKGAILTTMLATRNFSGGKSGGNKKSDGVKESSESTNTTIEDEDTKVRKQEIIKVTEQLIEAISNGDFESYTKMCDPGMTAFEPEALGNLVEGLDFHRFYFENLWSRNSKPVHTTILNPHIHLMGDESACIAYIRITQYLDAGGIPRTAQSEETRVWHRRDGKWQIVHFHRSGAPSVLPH
UniProt Q15131: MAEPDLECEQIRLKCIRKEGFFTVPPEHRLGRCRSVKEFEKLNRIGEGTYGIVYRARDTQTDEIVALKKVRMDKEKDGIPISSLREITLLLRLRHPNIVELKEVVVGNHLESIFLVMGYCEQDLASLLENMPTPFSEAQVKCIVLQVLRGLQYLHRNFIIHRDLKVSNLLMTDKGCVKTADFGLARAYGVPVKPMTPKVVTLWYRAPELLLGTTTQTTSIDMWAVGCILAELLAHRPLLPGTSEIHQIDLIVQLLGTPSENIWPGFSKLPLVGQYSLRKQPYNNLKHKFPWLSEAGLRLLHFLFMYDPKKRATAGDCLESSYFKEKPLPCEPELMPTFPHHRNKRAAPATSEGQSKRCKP
UniProt Q00526: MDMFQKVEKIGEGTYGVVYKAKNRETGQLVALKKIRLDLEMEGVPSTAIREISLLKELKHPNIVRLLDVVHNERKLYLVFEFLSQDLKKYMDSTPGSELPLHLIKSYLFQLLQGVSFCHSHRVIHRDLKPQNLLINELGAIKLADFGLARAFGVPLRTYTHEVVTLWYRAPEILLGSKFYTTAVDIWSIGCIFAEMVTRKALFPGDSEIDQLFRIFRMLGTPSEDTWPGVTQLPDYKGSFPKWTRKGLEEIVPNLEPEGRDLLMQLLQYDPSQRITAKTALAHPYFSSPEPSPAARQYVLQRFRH
UniProt P11802: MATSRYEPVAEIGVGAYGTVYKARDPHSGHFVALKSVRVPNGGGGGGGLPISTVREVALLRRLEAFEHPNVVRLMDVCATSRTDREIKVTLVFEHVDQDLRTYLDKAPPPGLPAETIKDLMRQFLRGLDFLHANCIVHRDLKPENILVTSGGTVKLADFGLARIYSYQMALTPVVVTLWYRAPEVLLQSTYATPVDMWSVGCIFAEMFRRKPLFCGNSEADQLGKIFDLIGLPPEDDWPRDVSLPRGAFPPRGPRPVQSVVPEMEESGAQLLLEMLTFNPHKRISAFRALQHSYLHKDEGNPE
UniProt Q00535, whole entry, looked up: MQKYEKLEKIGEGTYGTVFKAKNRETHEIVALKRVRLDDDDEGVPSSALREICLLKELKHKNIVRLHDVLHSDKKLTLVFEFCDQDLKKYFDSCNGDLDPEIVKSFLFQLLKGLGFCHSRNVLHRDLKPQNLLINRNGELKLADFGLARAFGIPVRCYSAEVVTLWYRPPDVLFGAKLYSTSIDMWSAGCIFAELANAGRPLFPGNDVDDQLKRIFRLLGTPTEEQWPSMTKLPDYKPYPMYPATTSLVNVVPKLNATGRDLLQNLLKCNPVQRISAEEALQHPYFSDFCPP
UniProt Q00534, whole entry: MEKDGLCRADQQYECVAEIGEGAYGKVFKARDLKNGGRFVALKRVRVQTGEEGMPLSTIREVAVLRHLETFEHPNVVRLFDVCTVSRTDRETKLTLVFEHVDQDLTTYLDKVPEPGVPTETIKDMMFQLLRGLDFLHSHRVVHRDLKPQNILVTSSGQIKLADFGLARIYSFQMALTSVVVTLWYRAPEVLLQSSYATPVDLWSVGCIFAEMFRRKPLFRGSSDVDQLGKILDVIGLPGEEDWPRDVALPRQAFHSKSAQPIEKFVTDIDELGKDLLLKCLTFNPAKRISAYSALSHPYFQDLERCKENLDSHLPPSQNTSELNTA

How the values were obtained:
Assay in all cases: kinase-Nluc reporter destabilization hit call (1 = scored as downregulated) (binary); higher = compound decreases kinase abundance
Details in all cases: K562; 2-18 h
ABL1 = ABL1 (UniProt P00519)
AKT1 = AKT1 (UniProt P31749)
ALK = ALK (UniProt Q9UM73)
ARAF = ARAF (UniProt P10398)
AURKA = AURKA (UniProt O14965)
AURKB = AURKB (UniProt Q96GD4)
AURKC = AURKC (UniProt Q9UQB9)
BLK = BLK (UniProt P51451)
BMX = BMX (UniProt P51813)
BRAF = BRAF (UniProt P15056)
BRAF_V600E = tested on: BRAF_V600E
BTK = BTK (UniProt Q06187)
CAMK2A = CAMK2A (UniProt Q9UQM7)
CAMK2G = CAMK2G (UniProt Q13555)
CDK10 = CDK10 (UniProt Q15131)
CDK2 = CDK2 (UniProt P24941)
CDK3 = CDK3 (UniProt Q00526)
CDK4 = CDK4 (UniProt P11802)
CDK5 = CDK5 (UniProt Q00535)
CDK6 = CDK6 (UniProt Q00534)

Measured: kinase-Nluc reporter destabilization hit call

C[C@@H]1C[C@H]2O[C@@]3(O[C@@H]2C(C)(C)O)[C@H](O)[C@@]2(C)[C@@H]4CC[C@H]5C(C)(C)[C@@H](O[C@@H]6OC[C@H](O)[C@H](O)[C@H]6O)CC[C@@]56C[C@@]46CC[C@]2(C)[C@@H]13 [Cimiracemoside C] (10 µM)
inactive: ABL1 = 0 | AKT1 = 0 | ALK 0 | ARAF 0 | AURKA 0 | AURKB 0 | AURKC 0 | BLK 0 | BMX 0 | BRAF 0 | BRAF_V600E 0 | BTK 0 | CAMK2A 0 | CAMK2G 0 | CDK10 = 0 | CDK2 = 0 | CDK3 = 0 | CDK4 = 0 | CDK5 = 0 | CDK6 = 0

O=c1ccoc2cc(O)ccc12 [7-Hydroxy-4H-chromen-4-one] (10 µM)
inactive: ABL1 = 0 | AKT1 = 0 | ALK 0 | ARAF 0 | AURKA 0 | AURKB 0 | AURKC 0 | BLK 0 | BMX 0 | BRAF 0 | BRAF_V600E 0 | BTK 0 | CAMK2A 0 | CAMK2G 0 | CDK10 = 0 | CDK2 = 0 | CDK3 = 0 | CDK4 = 0 | CDK5 = 0 | CDK6 = 0

CC(=O)Nc1nc2ccc(-c3cnc(C)c(NC(=O)OC4CCCCC4)c3)cc2s1 (10 µM)
inactive: ABL1 = 0 | AKT1 = 0 | ALK 0 | ARAF 0 | AURKA 0 | AURKB 0 | AURKC 0 | BLK 0 | BMX 0 | BRAF 0 | BRAF_V600E 0 | BTK 0 | CAMK2A 0 | CAMK2G 0 | CDK10 = 0 | CDK2 = 0 | CDK3 = 0 | CDK4 = 0 | CDK5 = 0 | CDK6 = 0

COc1cc(C(C)=O)cc(OC)c1O [Acetosyringone] (10 µM)
inactive: ABL1 = 0 | AKT1 = 0 | ALK 0 | ARAF 0 | AURKA 0 | AURKB 0 | AURKC 0 | BLK 0 | BMX 0 | BRAF 0 | BRAF_V600E 0 | BTK 0 | CAMK2A 0 | CAMK2G 0 | CDK10 = 0 | CDK2 = 0 | CDK3 = 0 | CDK4 = 0 | CDK5 = 0 | CDK6 = 0

O=C1NC(=O)C(c2cnc3ccccn23)=C1c1cn2c3c(cc(F)cc13)CN(C(=O)N1CCCCC1)CC2 (2.5 µM)
active: BMX 1
inactive: ABL1 = 0 | AKT1 = 0 | ALK 0 | ARAF 0 | AURKA 0 | AURKB 0 | AURKC 0 | BLK 0 | BRAF 0 | BRAF_V600E 0 | BTK 0 | CAMK2A 0 | CAMK2G 0 | CDK10 = 0 | CDK2 = 0 | CDK3 = 0 | CDK4 = 0 | CDK5 = 0 | CDK6 = 0

CCOc1ccccc1C=C1C(=O)Nc2ccccc21 (10 µM)
inactive: ABL1 = 0 | AKT1 = 0 | ALK 0 | ARAF 0 | AURKA 0 | AURKB 0 | AURKC 0 | BLK 0 | BMX 0 | BRAF 0 | BRAF_V600E 0 | BTK 0 | CAMK2A 0 | CAMK2G 0 | CDK10 = 0 | CDK2 = 0 | CDK3 = 0 | CDK4 = 0 | CDK5 = 0 | CDK6 = 0

Cc1cnc(Nc2ccc(N3CCN(C)CC3)cc2)nc1Nc1cccc(S(=O)(=O)NC(C)(C)C)c1 (2.5 µM)
inactive: ABL1 = 0 | AKT1 = 0 | ALK 0 | ARAF 0 | AURKA 0 | AURKB 0 | AURKC 0 | BLK 0 | BMX 0 | BRAF 0 | BRAF_V600E 0 | BTK 0 | CAMK2A 0 | CAMK2G 0 | CDK10 = 0 | CDK2 = 0 | CDK3 = 0 | CDK4 = 0 | CDK5 = 0 | CDK6 = 0

CN(C)c1nc2c(Br)c(Br)c(Br)c(Br)c2n1CC(=O)O (10 µM)
inactive: ABL1 = 0 | AKT1 = 0 | ALK 0 | ARAF 0 | AURKA 0 | AURKB 0 | AURKC 0 | BLK 0 | BMX 0 | BRAF 0 | BRAF_V600E 0 | BTK 0 | CAMK2A 0 | CAMK2G 0 | CDK10 = 0 | CDK2 = 0 | CDK3 = 0 | CDK4 = 0 | CDK5 = 0 | CDK6 = 0

O=C(O)c1ccc(N2N=C(Cc3ccccc3)C(=Cc3ccc(-c4ccccc4F)o3)C2=O)cc1 (10 µM)
inactive: ABL1 = 0 | AKT1 = 0 | ALK 0 | ARAF 0 | AURKA 0 | AURKB 0 | AURKC 0 | BLK 0 | BMX 0 | BRAF 0 | BRAF_V600E 0 | BTK 0 | CAMK2A 0 | CAMK2G 0 | CDK10 = 0 | CDK2 = 0 | CDK3 = 0 | CDK4 = 0 | CDK5 = 0 | CDK6 = 0

Cc1cccc(-c2[nH]ncc2-c2ccc3ncccc3n2)n1 (10 µM)
inactive: ABL1 = 0 | AKT1 = 0 | ALK 0 | ARAF 0 | AURKA 0 | AURKB 0 | AURKC 0 | BLK 0 | BMX 0 | BRAF 0 | BRAF_V600E 0 | BTK 0 | CAMK2A 0 | CAMK2G 0 | CDK10 = 0 | CDK2 = 0 | CDK3 = 0 | CDK4 = 0 | CDK5 = 0 | CDK6 = 0

CC(CCc1ccccn1)(CCc1ccccn1)C(=O)c1ccccc1 (10 µM)
inactive: ABL1 = 0 | AKT1 = 0 | ALK 0 | ARAF 0 | AURKA 0 | AURKB 0 | AURKC 0 | BLK 0 | BMX 0 | BRAF 0 | BRAF_V600E 0 | BTK 0 | CAMK2A 0 | CAMK2G 0 | CDK10 = 0 | CDK2 = 0 | CDK3 = 0 | CDK4 = 0 | CDK5 = 0 | CDK6 = 0

O=C(CCCCCn1cc(Nc2ncc(Cl)c(Nc3ccc(Cl)cc3)n2)cn1)NO (2.5 µM)
inactive: ABL1 = 0 | AKT1 = 0 | ALK 0 | ARAF 0 | AURKA 0 | AURKB 0 | AURKC 0 | BLK 0 | BMX 0 | BRAF 0 | BRAF_V600E 0 | BTK 0 | CAMK2A 0 | CAMK2G 0 | CDK10 = 0 | CDK2 = 0 | CDK3 = 0 | CDK4 = 0 | CDK5 = 0 | CDK6 = 0

CC[C@@H]1C(=O)N(C)c2cnc(Nc3ccc(C(=O)N[C@H]4CC[C@H](N5CCN(CC6CC6)CC5)CC4)cc3OC)nc2N1C(C)C [Volasertib] (2.5 µM)
inactive: ABL1 = 0 | AKT1 = 0 | ALK 0 | ARAF 0 | AURKA 0 | AURKB 0 | AURKC 0 | BLK 0 | BMX 0 | BRAF 0 | BRAF_V600E 0 | BTK 0 | CAMK2A 0 | CAMK2G 0 | CDK10 = 0 | CDK2 = 0 | CDK3 = 0 | CDK4 = 0 | CDK5 = 0 | CDK6 = 0

Cc1ccc(-c2nn(C(C)(C)CNC(=O)c3ccncc3)c3ncnc(N)c23)cc1 (2.5 µM)
inactive: ABL1 = 0 | AKT1 = 0 | ALK 0 | ARAF 0 | AURKA 0 | AURKB 0 | AURKC 0 | BLK 0 | BMX 0 | BRAF 0 | BRAF_V600E 0 | BTK 0 | CAMK2A 0 | CAMK2G 0 | CDK10 = 0 | CDK2 = 0 | CDK3 = 0 | CDK4 = 0 | CDK5 = 0 | CDK6 = 0

Nc1cccc(S(=O)(=O)N2CCCN(S(=O)(=O)c3ccc4c(c3)OCCO4)CC2)c1 (10 µM)
inactive: ABL1 = 0 | AKT1 = 0 | ALK 0 | ARAF 0 | AURKA 0 | AURKB 0 | AURKC 0 | BLK 0 | BMX 0 | BRAF 0 | BRAF_V600E 0 | BTK 0 | CAMK2A 0 | CAMK2G 0 | CDK10 = 0 | CDK2 = 0 | CDK3 = 0 | CDK4 = 0 | CDK5 = 0 | CDK6 = 0

Among those listed so far, four contain a carbonyl joined to an NH by a bond outside any ring.
CC(=O)Nc1nc2ccc(-c3cnc(C)c(NC(=O)OC4CCCCC4)c3)cc2s1 (10 µM)
inactive: ABL1 = 0 | AKT1 = 0 | ALK 0 | ARAF 0 | AURKA 0 | AURKB 0 | AURKC 0 | BLK 0 | BMX 0 | BRAF 0 | BRAF_V600E 0 | BTK 0 | CAMK2A 0 | CAMK2G 0 | CDK10 = 0 | CDK2 = 0 | CDK3 = 0 | CDK4 = 0 | CDK5 = 0 | CDK6 = 0

O=C(CCCCCn1cc(Nc2ncc(Cl)c(Nc3ccc(Cl)cc3)n2)cn1)NO (2.5 µM)
inactive: ABL1 = 0 | AKT1 = 0 | ALK 0 | ARAF 0 | AURKA 0 | AURKB 0 | AURKC 0 | BLK 0 | BMX 0 | BRAF 0 | BRAF_V600E 0 | BTK 0 | CAMK2A 0 | CAMK2G 0 | CDK10 = 0 | CDK2 = 0 | CDK3 = 0 | CDK4 = 0 | CDK5 = 0 | CDK6 = 0

CC[C@@H]1C(=O)N(C)c2cnc(Nc3ccc(C(=O)N[C@H]4CC[C@H](N5CCN(CC6CC6)CC5)CC4)cc3OC)nc2N1C(C)C [Volasertib] (2.5 µM)
inactive: ABL1 = 0 | AKT1 = 0 | ALK 0 | ARAF 0 | AURKA 0 | AURKB 0 | AURKC 0 | BLK 0 | BMX 0 | BRAF 0 | BRAF_V600E 0 | BTK 0 | CAMK2A 0 | CAMK2G 0 | CDK10 = 0 | CDK2 = 0 | CDK3 = 0 | CDK4 = 0 | CDK5 = 0 | CDK6 = 0

Cc1ccc(-c2nn(C(C)(C)CNC(=O)c3ccncc3)c3ncnc(N)c23)cc1 (2.5 µM)
inactive: ABL1 = 0 | AKT1 = 0 | ALK 0 | ARAF 0 | AURKA 0 | AURKB 0 | AURKC 0 | BLK 0 | BMX 0 | BRAF 0 | BRAF_V600E 0 | BTK 0 | CAMK2A 0 | CAMK2G 0 | CDK10 = 0 | CDK2 = 0 | CDK3 = 0 | CDK4 = 0 | CDK5 = 0 | CDK6 = 0

Carrying on.

O=c1[nH]ccc2cc(OC3CCNCC3)ccc12 (10 µM)
inactive: ABL1 = 0 | AKT1 = 0 | ALK 0 | ARAF 0 | AURKA 0 | AURKB 0 | AURKC 0 | BLK 0 | BMX 0 | BRAF 0 | BRAF_V600E 0 | BTK 0 | CAMK2A 0 | CAMK2G 0 | CDK10 = 0 | CDK2 = 0 | CDK3 = 0 | CDK4 = 0 | CDK5 = 0 | CDK6 = 0

Nc1n[nH]c2cc(-c3ccc(=O)n(Cc4cccc(Cl)c4)c3)ccc12 (10 µM)
inactive: ABL1 = 0 | AKT1 = 0 | ALK 0 | ARAF 0 | AURKA 0 | AURKB 0 | AURKC 0 | BLK 0 | BMX 0 | BRAF 0 | BRAF_V600E 0 | BTK 0 | CAMK2A 0 | CAMK2G 0 | CDK10 = 0 | CDK2 = 0 | CDK3 = 0 | CDK4 = 0 | CDK5 = 0 | CDK6 = 0
